Measured values reported in paper doi:10.1101/334581.
Results are given in words; binding and its absence hold for the method and conditions named. Binding seen in cells or lysates may run through a third protein. Some binding calls cover weakened binding; strength is not graded here. Tags and fused reporters may be left off the sequences shown.

Sequences of proteins named here, by UniProt entry; tags and fusion partners are left off.
UniProt Q6WWW4: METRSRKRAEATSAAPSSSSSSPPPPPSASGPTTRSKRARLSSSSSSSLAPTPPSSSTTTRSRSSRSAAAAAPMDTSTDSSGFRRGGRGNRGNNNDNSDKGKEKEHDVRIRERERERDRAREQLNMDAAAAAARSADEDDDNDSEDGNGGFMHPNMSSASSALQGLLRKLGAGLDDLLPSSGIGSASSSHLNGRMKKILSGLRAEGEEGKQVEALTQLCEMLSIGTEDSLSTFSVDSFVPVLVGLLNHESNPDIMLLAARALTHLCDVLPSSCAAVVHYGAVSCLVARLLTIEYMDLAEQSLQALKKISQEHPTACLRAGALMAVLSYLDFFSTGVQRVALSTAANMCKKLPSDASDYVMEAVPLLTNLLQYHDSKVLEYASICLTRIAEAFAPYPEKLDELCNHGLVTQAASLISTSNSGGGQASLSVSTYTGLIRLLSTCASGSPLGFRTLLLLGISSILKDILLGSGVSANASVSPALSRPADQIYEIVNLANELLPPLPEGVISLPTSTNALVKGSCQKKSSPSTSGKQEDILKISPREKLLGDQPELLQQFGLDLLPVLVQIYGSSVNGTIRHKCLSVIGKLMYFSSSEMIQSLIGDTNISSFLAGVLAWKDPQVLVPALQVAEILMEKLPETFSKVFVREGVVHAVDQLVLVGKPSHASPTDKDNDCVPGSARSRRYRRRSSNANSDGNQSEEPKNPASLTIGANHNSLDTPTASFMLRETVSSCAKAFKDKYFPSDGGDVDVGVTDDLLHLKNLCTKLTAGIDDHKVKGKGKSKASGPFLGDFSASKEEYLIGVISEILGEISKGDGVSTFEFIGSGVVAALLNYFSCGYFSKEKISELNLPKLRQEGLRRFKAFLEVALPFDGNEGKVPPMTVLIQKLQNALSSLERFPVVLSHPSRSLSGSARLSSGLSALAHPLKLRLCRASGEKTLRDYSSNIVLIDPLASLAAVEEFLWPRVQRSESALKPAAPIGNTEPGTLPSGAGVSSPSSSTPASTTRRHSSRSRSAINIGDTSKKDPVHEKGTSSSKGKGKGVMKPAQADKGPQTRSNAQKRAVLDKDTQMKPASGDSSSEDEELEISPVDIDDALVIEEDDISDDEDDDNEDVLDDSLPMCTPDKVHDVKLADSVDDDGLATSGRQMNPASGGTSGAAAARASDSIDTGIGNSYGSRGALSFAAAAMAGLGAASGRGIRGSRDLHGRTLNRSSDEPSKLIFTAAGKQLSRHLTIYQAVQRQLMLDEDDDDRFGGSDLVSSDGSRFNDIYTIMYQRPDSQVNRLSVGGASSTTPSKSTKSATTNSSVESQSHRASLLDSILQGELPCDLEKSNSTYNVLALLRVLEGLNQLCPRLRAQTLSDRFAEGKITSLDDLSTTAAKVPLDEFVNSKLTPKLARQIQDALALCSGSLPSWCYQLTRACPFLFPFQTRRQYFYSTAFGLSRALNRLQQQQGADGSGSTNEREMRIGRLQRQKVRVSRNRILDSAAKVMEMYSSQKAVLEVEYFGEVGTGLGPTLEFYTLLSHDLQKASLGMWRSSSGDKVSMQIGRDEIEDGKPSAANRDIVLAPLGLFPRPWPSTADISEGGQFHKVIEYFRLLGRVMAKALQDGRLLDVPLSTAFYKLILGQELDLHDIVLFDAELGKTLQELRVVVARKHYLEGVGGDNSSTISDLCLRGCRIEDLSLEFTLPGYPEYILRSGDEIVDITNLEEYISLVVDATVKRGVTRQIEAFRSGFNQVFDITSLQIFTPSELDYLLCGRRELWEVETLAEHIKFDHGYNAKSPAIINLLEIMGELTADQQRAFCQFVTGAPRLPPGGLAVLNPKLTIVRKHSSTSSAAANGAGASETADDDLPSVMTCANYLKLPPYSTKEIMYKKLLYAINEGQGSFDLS

Molecular target: 3FLAG-UPL3 (Arabidopsis UBIQUITIN PROTEIN LIGASE 3 with 3xFLAG) (Arabidopsis thaliana) (UniProt Q6WWW4)
Test: co-IP

binding: binds
B1: LEC2-GFP (Arabidopsis LEAFY COTYLEDON 2 fused to GFP) (protein, UniProt Q1PFR7 1-363)
chain: MDNFLPFPSSNANSVQELSMDPNNNRSHFTTVPTYDHHQAQPHHFLPPFSYPVEQMAAVMNPQPVYLSECYPQIPVTQTGSEFGSLVGNPCLWQERGGFLDPRMTKMARINRKNAMMRSRNNSSPNSSPSELVDSKRQLMMLNLKNNVQISDKKDSYQQSTFDNKKLRVLCEKELKNSDVGSLGRIVLPKRDAEANLPKLSDKEGIVVQMRDVFSMQSWSFKYKFWSNNKSRMYVLENTGEFVKQNGAEIGDFLTIYEDESKNLYFAMNGNSGKQNEGRENESRERNHYEEAMLDYIPRDEEEASIAMLIGNLNDHYPIPNDLMDLTTDLQHHQATSSSMPPEDHAYVGSSDDQVSFNDFEWW
